The results are deposited in PubChem (AID1347107; NCATS, 2019).

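Rh30 rhabdomyosarcoma cell line exposed to compounds for 48 h, with viable metabolically active cells gauged by CellTiter-Glo light output.
Compounds ran as dilution series reaching 46 µM at the top, from about 0.78 nM for the 11-point MIPE set.
The number is the fitted AC50 potency for loss of cell viability; a lower value means a more potent cytotoxic effect.
Calls come from curve class and an activity score: actives score 40 to 100, inconclusives 1 to 39 (weak, partial, poorly fitted or top-dose-only curves), and inactives score 0.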

Values are in µM.
Every entry below has the call inconclusive.
Only part of the assay is shown, chiefly results filed as inconclusive.
Potencies fitted to partial, single-point or poorly fitting curves are rough.
Some entries filed as inconclusive have a full curve.
Activity scores are not listed here.

- CC(=O)N1CCN(c2ccc(OCc3nn(C)c(C)c3-c3cccc4c(CCCOc5cc(C)c(Cl)c(C)c5)c(C(=O)O)n(Cc5cccnc5)c34)cc2)CC1 : Potency 18.65 µM (cytotoxic, partial curve)
- CN[C@@H](C)C(=O)N[C@H]1CCCC[C@H]2CC[C@@H](C(=O)N[C@@H](c3ccccc3)c3cn(CCCCc4ccc(CCCCn5cc([C@@H](NC(=O)[C@@H]6CC[C@@H]7CCCC[C@H](NC(=O)[C@H](C)NC)C(=O)N76)c6ccccc6)nn5)cc4)nn3)N2C1=O : Potency 16.63 µM (cytotoxic, partial curve)
- CC(C)N(CCCNC(=O)Nc1ccc(C(C)(C)C)cc1)C[C@H]1O[C@@H](n2cc(Br)c3c(N)ncnc32)[C@H](O)[C@H]1O : Potency 18.65 µM (cytotoxic, partial curve)
- C=CC[N+]1([C@H]2C[C@H]3[C@@H]4CC[C@H]5C[C@H](O)[C@@H](N6CCOCC6)C[C@]5(C)[C@@H]4CC[C@]3(C)[C@H]2OC(C)=O)CCCC1 : Potency 18.65 µM (cytotoxic, partial curve)
- CC(=O)O[C@]1(C(C)=O)CC[C@H]2[C@@H]3C=C(Cl)C4=CC(=O)[C@@H]5C[C@H]5[C@]4(C)[C@@H]3CC[C@@]21C : Potency 29.57 µM (cytotoxic, single point)
- CCCCC(C)(C)[C@H](O)C=C[C@H]1[C@H](O)CC(=O)[C@H]1CC=CCCCC(=O)O : Potency 18.65 µM (cytotoxic, partial curve)
- CCOC(=O)c1c(CSc2ccccc2)n(C)c2cc(Br)c(O)c(CN(C)C)c12 : Potency 20.93 µM (cytotoxic, partial curve, poor fit)
- O=C(NOCC(O)CO)c1cc(Br)c(F)c(F)c1Nc1ccc(I)cc1F (stereo unspecified) : Potency 7.427 µM (cytotoxic, single point)
- Fc1ccc(C(OCCN2CCN(CCCc3ccccc3)CC2)c2ccc(F)cc2)cc1 : Potency 21.14 µM (cytotoxic, single point)
- C=C1C(=CC=C2CCC[C@]3(C)[C@@H]([C@H](C)CCCC(C)(C)O)CC[C@@H]23)C[C@@H](O)C[C@@H]1O : Potency 11.77 µM (cytotoxic, partial curve)
- COc1cc2nc(N3CCN(C(=O)c4ccco4)CC3)nc(N)c2cc1OC : Potency 33.17 µM (cytotoxic, single point)
- CN1CCC(=C2c3ccccc3C=Cc3ccccc32)CC1 : Potency 23.48 µM (cytotoxic, single point)
- CCOC(=O)c1c(C(C#N)=CN)c2ccc(Cl)c(Cl)c2n1C : Potency 14.82 µM (cytotoxic, partial curve, poor fit)
- CN1CCN(c2cccc(Nc3nc4c(-c5ccc(S(C)(=O)=O)cc5)cccn4n3)c2)CC1 : Potency 16.63 µM (cytotoxic, partial curve)
- O=C1NC(=O)C(=Cc2cccc(C(F)(F)F)c2)S1 : Potency 16.63 µM (cytotoxic, partial curve)
- CCC(OC(C)=O)C(CC(C)NC)(c1ccccc1)c1ccccc1 (stereo unspecified) : Potency 49.06 µM (cytotoxic, single point)
- O=c1cc(O)c(Cl)c[nH]1 : Potency 11.77 µM (cytotoxic, partial curve)
- OC[C@H]1O[C@@H](Oc2ccc(O)cc2)[C@H](O)[C@@H](O)[C@H]1O : Potency 33.17 µM (cytotoxic, single point)
- Cc1cc(N2CCOCC2)cc2[nH]c(-c3c(NC[C@@H](O)c4cccc(Cl)c4)cc[nH]c3=O)nc12 : Potency 0.4686 µM (cytotoxic, full curve)
- CC(=O)O[C@H]1C[C@@H]2CC[C@H]3[C@H]4C[C@H]([N+]5(C)CCCCC5)[C@@H](OC(C)=O)[C@@]4(C)CC[C@@H]3[C@@]2(C)C[C@H]1N1CCCCC1 : Potency 20.93 µM (cytotoxic, partial curve, poor fit)
- C[C@]1(c2nc3c(C(N)=O)cccc3[nH]2)CCCN1 : Potency 20.93 µM (cytotoxic, partial curve, poor fit)
- O=P1(N(CCCl)CCCl)NCCCO1 (stereo unspecified) : Potency 3.722 µM (cytotoxic, partial curve)
- O=C(c1ccc(F)c(F)c1Nc1ccc(I)cc1F)N1CC(O)([C@H]2CCCCN2)C1 : Potency 13.21 µM (cytotoxic, partial curve)
- Cc1cn2c(-c3cn[nH]c3)cnc2c(Nc2ccc(C(=O)N3CCNCC3)cc2F)n1 : Potency 16.63 µM (cytotoxic, partial curve)
- c1ccc2c(c1)Sc1ccccc1N2CC1CN2CCC1CC2 (stereo unspecified) : Potency 26.61 µM (cytotoxic, single point)
- CN1N=C(N)c2cn([C@@H]3O[C@H](COP(=O)(O)O)[C@@H](O)[C@@H]3O)c3ncnc1c23 : Potency 1.663 µM (cytotoxic, full curve)
- CN(C)C(=O)C(CCN1CCC(O)(c2ccc(Cl)cc2)CC1)(c1ccccc1)c1ccccc1 : Potency 18.65 µM (cytotoxic, partial curve)
- C[C@@H]1CC=CC=CC=CC=C[C@@H](O[C@@H]2O[C@H](C)[C@@H](O)[C@H](N)[C@H]2O)C[C@@H]2O[C@](O)(C[C@@H](O)C[C@@H]3O[C@@H]3C=CC(=O)O1)C[C@H](O)[C@@H]2C(=O)O : Potency 14.82 µM (cytotoxic, partial curve)
- Cn1cc(C2=C(c3cn(C4CCN(Cc5ccccn5)CC4)c4ccccc34)C(=O)NC2=O)c2ccccc21 : Potency 9.35 µM (cytotoxic, partial curve)
- CC(C)n1cnc2c(NCCCCCCNC(=O)OC(C)(C)C)nc(NCCO)nc21 : Potency 7.427 µM (cytotoxic, partial curve)
- CC(C)[C@H](O)C(=O)N[C@@H](C)C(=O)N[C@@H]1C(=O)N(C)CCc2ccccc21 : Potency 13.21 µM (cytotoxic, partial curve)
- CS(=O)(=O)CCNCc1ccc(-c2ccc3ncnc(Nc4ccc(OCc5cccc(F)c5)c(Cl)c4)c3c2)o1 : Potency 18.84 µM (cytotoxic, single point)

For reference, 3 entries once more:

| compound | Potency (µM) | curve |
|---|---|---|
| `CC(C)[C@H](O)C(=O)N[C@@H](C)C(=O)N[C@@H]1C(=O)N(C)CCc2ccccc21` | 13.21 | cytotoxic, partial curve |
| `CCOC(=O)c1c(CSc2ccccc2)n(C)c2cc(Br)c(O)c(CN(C)C)c12` | 20.93 | cytotoxic, partial curve, poor fit |
| `CS(=O)(=O)CCNCc1ccc(-c2ccc3ncnc(Nc4ccc(OCc5cccc(F)c5)c(Cl)c4)c3c2)o1` | 18.84 | cytotoxic, single point |